The results in this text go back to US20200157220A1.

These are yes or no findings as the source states them, for the method shown. Some binding calls cover weakened binding; strength is not graded here. Tags and fused reporters may be left off the sequences shown.

The test concerns the target T1, cynomolgus monkey CTLA4-hFc (cynomolgus monkey; human) (UniProt G7PL88).
T1 sequence: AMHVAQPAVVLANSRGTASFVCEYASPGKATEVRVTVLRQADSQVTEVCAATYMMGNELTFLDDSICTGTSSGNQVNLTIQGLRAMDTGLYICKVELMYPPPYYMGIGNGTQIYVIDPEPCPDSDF
The test can be described thus: ProteOn XPR36 (SPR).

B1: Monovalent F023700906 Nanobody 11F01 (L11V,A14P,Q45R,A74S,K83R,V89L,M96P,Q108L)-FLAG3-HIS6 (VHH)
VHH: EVQLVESGGGVVQPGGSLRLSCAASGGTFSFYGMGWFRQAPGKEREFVADIRTSAGRTYYADSVKGRFTISRDNSKNTVYLQMNSLRPEDTALYYCAAEPSGISGWDYWGQGTLVTVSS
In the case of B1, the binding result is given as “binds”.
